The full ranking holds about 1,100 compounds; the median of “Renilla luciferase signal (cell health) relative to plate median” is about 0.97, and the highest 2% start at about 1.6. The list shows a part of the results, in another mix than the full data.

Renilla luciferase signal data for 33 compounds are collected here from the supplement of paper PMC9254222.

The subject of the assay is HEK293T (UBE3A T485A transfected, BAR Wnt reporter). Briefly: Renilla luciferase signal (cell health) relative to plate median (fold (linear ratio)); higher = higher Renilla signal. Conditions: 24 h. The method, boiled down:
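Wnt activity (firefly/Renilla ratio) and cell health (raw Renilla) were read with Dual-Glo luciferase and median-centred plate by plate. HEK293T cells, at 4500 cells/well in white 384-well plates with DMEM plus 10% FBS at 37°C and 5% CO2, carried a transfected BAR firefly luciferase Wnt reporter, TK-Renilla and an expression plasmid. The chemicals were applied by robot at 0.01–100 uM for 24 h, beginning four hours after transfection, and results were averaged across four biological replicates.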

`CC(C)(c1ccccc1)c1ccc(O)cc1` [4-Cumylphenol]: the Renilla luciferase signal (concentration: 0.1 uM) was 1.13, the Renilla luciferase signal (concentration: 1 uM) was determined as 1.18, the Renilla luciferase signal (concentration: 10 uM) amounted to 0.885 and the Renilla luciferase signal (concentration: 100 uM) was 0.0488.

As to `CCCCCCCCCc1ccc(O)cc1` [4-Nonylphenol], the Renilla luciferase signal is, setting by setting: (concentration: 0.1 uM) 0.979; (concentration: 1 uM) 0.984; (concentration: 10 uM) 0.92; (concentration: 100 uM) 0.419.

Turning to `CC(C)Oc1cccc(NC(=O)c2ccccc2C(F)(F)F)c1` [Flutolanil], the Renilla luciferase signal (concentration: 0.01 uM) is 0.958; the Renilla luciferase signal (concentration: 0.1 uM) amounted to 0.913; the Renilla luciferase signal (concentration: 1 uM) amounted to 0.934; the Renilla luciferase signal (concentration: 10 uM) worked out at 0.913; the Renilla luciferase signal (concentration: 100 uM) was determined as 1.07.

Turning to `O=P(O)(O)CCCl` [Ethephon], the Renilla luciferase signal runs as follows: (concentration: 0.01 uM) 1.06; (concentration: 0.1 uM) 0.846; (concentration: 1 uM) 0.935; (concentration: 10 uM) 1.38; (concentration: 100 uM) 1.33.

Take `O=C(Oc1ccc(Br)cc1)N1CCN2CCC1CC2`: the Renilla luciferase signal came to 0.793 (concentration: 0.1 uM), 0.861 (concentration: 1 uM), 0.806 (concentration: 10 uM) and 0.581 (concentration: 100 uM).

On to `ClCC(Cl)CCl` [1,2,3-Trichloropropane], for which the Renilla luciferase signal runs as follows: (concentration: 0.1 uM) 0.9; (concentration: 1 uM) 0.872; (concentration: 10 uM) 0.937; (concentration: 100 uM) 1.01.

As to `O=NN(c1ccccc1)c1ccccc1` [N-Nitrosodiphenylamine], the Renilla luciferase signal was 0.989 (concentration: 0.1 uM), 1.05 (concentration: 1 uM), 1.23 (concentration: 10 uM) and 1.26 (concentration: 100 uM).

Turning to `CNC(=O)ON=CC(C)(C)SC` [Aldicarb], the Renilla luciferase signal (concentration: 0.01 uM) is 1.1; the Renilla luciferase signal (concentration: 0.1 uM) amounted to 0.924; the Renilla luciferase signal (concentration: 1 uM) was found to be 0.97; the Renilla luciferase signal (concentration: 10 uM) stood at 0.918; the Renilla luciferase signal (concentration: 100 uM) worked out at 1.72.

Take `N#CSCSC#N` [Methylene bis(thiocyanate)]: the Renilla luciferase signal was found to be 1.18 (concentration: 0.01 uM); 1.16 (concentration: 0.1 uM); 1.12 (concentration: 1 uM); 1.2 (concentration: 10 uM); 0.00579 (concentration: 100 uM).

`CCCN(CCC)N=O` [N-Nitrosodipropylamine]: the Renilla luciferase signal was 0.934 (concentration: 0.1 uM), 0.91 (concentration: 1 uM), 0.961 (concentration: 10 uM) and 1.04 (concentration: 100 uM).

As for `O=[N+]([O-])c1ccccc1` [Nitrobenzene], the Renilla luciferase signal was found to be 0.931 (concentration: 0.1 uM), 0.977 (concentration: 1 uM), 0.817 (concentration: 10 uM) and 0.932 (concentration: 100 uM).

Regarding `CCNc1nc(Cl)nc(NCC)n1` [Simazine], the Renilla luciferase signal reads like this: (concentration: 0.01 uM) 0.975; (concentration: 0.1 uM) 0.87; (concentration: 1 uM) 1.01; (concentration: 10 uM) 0.994; (concentration: 100 uM) 1.18.

As to `Cc1ccc(/N=C/N(C)/C=N/c2ccc(C)cc2C)c(C)c1` [Amitraz], the Renilla luciferase signal (concentration: 0.01 uM) is 1.29; the Renilla luciferase signal (concentration: 0.1 uM) is 1.17; the Renilla luciferase signal (concentration: 1 uM) is 1.06; the Renilla luciferase signal (concentration: 10 uM) was found to be 1.21; the Renilla luciferase signal (concentration: 100 uM) was found to be 0.0374.

Regarding `Cc1sc2c(c1C)C(c1ccc(Cl)cc1)=NC(CC(=O)OC(C)(C)C)c1nnc(C)n1-2` (racemic), the Renilla luciferase signal by setting is: (concentration: 0.01 uM) 0.854; (concentration: 0.1 uM) 0.716; (concentration: 1 uM) 0.785; (concentration: 10 uM) 1.12; (concentration: 100 uM) 0.237.

On to `O=C(O)C(F)(F)C(F)(F)C(F)(F)C(F)(F)C(F)(F)C(F)(F)C(F)(F)F`, for which the Renilla luciferase signal worked out at 0.983 (concentration: 0.01 uM); 0.781 (concentration: 0.1 uM); 0.834 (concentration: 1 uM); 0.9 (concentration: 10 uM); 1.9 (concentration: 100 uM).

For the compound `C=C(C)C(=O)[O][Sn]([CH2]CCC)([CH2]CCC)[CH2]CCC` [Tributyltin methacrylate], the Renilla luciferase signal by setting is: (concentration: 0.1 uM) 0.701; (concentration: 1 uM) 0.686; (concentration: 10 uM) 0.499; (concentration: 100 uM) 0.0265.

Take `COc1cc(-c2ccc(N)c(OC)c2)ccc1N` [3,3'-Dimethoxybenzidine]: the Renilla luciferase signal by setting is: (concentration: 0.1 uM) 0.89; (concentration: 1 uM) 0.92; (concentration: 10 uM) 0.684; (concentration: 100 uM) 0.388.

With `CC1(c2ccc(Oc3ccccc3)cc2)OC(=O)N(Nc2ccccc2)C1=O` (stereo unspecified) [Famoxadone], the Renilla luciferase signal (concentration: 0.01 uM) was 1.07; the Renilla luciferase signal (concentration: 0.1 uM) stood at 1.08; the Renilla luciferase signal (concentration: 1 uM) worked out at 1.07; the Renilla luciferase signal (concentration: 10 uM) was determined as 0.383; the Renilla luciferase signal (concentration: 100 uM) is 1.15.

With `C=CC(=O)NCNC(=O)C=C` [N,N'-Methylenebisacrylamide], the Renilla luciferase signal is, setting by setting: (concentration: 0.1 uM) 0.813; (concentration: 1 uM) 0.815; (concentration: 10 uM) 0.84; (concentration: 100 uM) 0.722.

As for `Brc1ccc(Oc2ccccc2)cc1` [p-Bromodiphenyl ether], the Renilla luciferase signal (concentration: 0.1 uM) is 0.896, the Renilla luciferase signal (concentration: 1 uM) is 0.914, the Renilla luciferase signal (concentration: 10 uM) amounted to 0.837 and the Renilla luciferase signal (concentration: 100 uM) worked out at 0.987.

Turning to `CCCSP(=O)(OCC)Oc1ccc(Br)cc1Cl` (stereo unspecified) [Profenofos], the Renilla luciferase signal is, setting by setting: (concentration: 0.01 uM) 0.9; (concentration: 0.1 uM) 0.888; (concentration: 1 uM) 0.969; (concentration: 10 uM) 1; (concentration: 100 uM) 0.894.

In the case of `CN(C)N=O` [N-Nitrosodimethylamine], the Renilla luciferase signal by setting is: (concentration: 0.1 uM) 0.934; (concentration: 1 uM) 0.919; (concentration: 10 uM) 0.945; (concentration: 100 uM) 1.15.

On to `CCCCCCCCCC(CC)c1ccc(S(=O)(=O)O)cc1.OCCN(CCO)CCO` (stereo unspecified) [Dodecylbenzene sulfonate triethanolamine(1:1)], for which the Renilla luciferase signal was 1.09 (concentration: 0.1 uM), 0.943 (concentration: 1 uM), 0.966 (concentration: 10 uM) and 0.841 (concentration: 100 uM).

For `c1cc2ccc3cccc4ccc(c1)c2c34` [Pyrene], the Renilla luciferase signal turned out to be 0.967 (concentration: 0.1 uM), 0.928 (concentration: 1 uM), 1.05 (concentration: 10 uM) and 0.889 (concentration: 100 uM).

In the case of `COc1cc(-c2ccc(N)c(OC)c2)ccc1N.Cl.Cl` [3,3'-Dimethoxybenzidine dihydrochloride], the Renilla luciferase signal runs as follows: (concentration: 0.1 uM) 0.847; (concentration: 1 uM) 0.823; (concentration: 10 uM) 0.799; (concentration: 100 uM) 0.158.

Take `CC(Cl)(Cl)C(=O)O` [Dalapon]: the Renilla luciferase signal amounted to 0.848 (concentration: 0.1 uM), 0.831 (concentration: 1 uM), 0.854 (concentration: 10 uM) and 0.956 (concentration: 100 uM).

Consider `C#CCOS(=O)OC1CCCCC1Oc1ccc(C(C)(C)C)cc1` (stereo unspecified) [Propargite], for which the Renilla luciferase signal (concentration: 0.01 uM) worked out at 0.841; the Renilla luciferase signal (concentration: 0.1 uM) came to 0.816; the Renilla luciferase signal (concentration: 1 uM) was 1.02; the Renilla luciferase signal (concentration: 10 uM) was 0.994; the Renilla luciferase signal (concentration: 100 uM) worked out at 0.0642.

As for `Cc1cc(C)cc(C)c1` [1,3,5-Trimethylbenzene], the Renilla luciferase signal is, setting by setting: (concentration: 0.1 uM) 1.1; (concentration: 1 uM) 1.15; (concentration: 10 uM) 1.17; (concentration: 100 uM) 1.33.

Take `Cc1cc(C2CC2)nc(Nc2ccccc2)n1` [Cyprodinil]: the Renilla luciferase signal runs as follows: (concentration: 0.01 uM) 1.12; (concentration: 0.1 uM) 1.03; (concentration: 1 uM) 1.11; (concentration: 10 uM) 1.08; (concentration: 100 uM) 0.557.

`C[C@]12CCC(=O)C[C@@H]1CC[C@@H]1[C@@H]2CC[C@]2(C)[C@@H](O)CC[C@@H]12` [5alpha-Dihydrotestosterone]: the Renilla luciferase signal (concentration: 100 uM) turned out to be 2.06.

As for `CCCCOC(=O)c1ccccc1C(=O)OCc1ccccc1` [Benzyl butyl phthalate], the Renilla luciferase signal (concentration: 0.1 uM) was 1.05, the Renilla luciferase signal (concentration: 1 uM) turned out to be 1.23, the Renilla luciferase signal (concentration: 10 uM) is 1.28 and the Renilla luciferase signal (concentration: 100 uM) amounted to 1.04.

For the compound `CCOP(=S)(OCC)SCSCC` [Phorate], the Renilla luciferase signal is, setting by setting: (concentration: 0.1 uM) 1.09; (concentration: 1 uM) 0.968; (concentration: 10 uM) 1.1; (concentration: 100 uM) 1.18.

With `Clc1ccc(Cl)c(Cl)c1` [1,2,4-Trichlorobenzene], the Renilla luciferase signal runs as follows: (concentration: 0.1 uM) 1.24; (concentration: 1 uM) 1.27; (concentration: 10 uM) 1.34; (concentration: 100 uM) 1.39.
